Data reported in patent publication US11918621B2, “Methods and treatments using toll-like receptor agonists to mitigate hematopoietic myeloid loss, increase gastrointestinal recovery and reduce tumor growth” (priority 2017, dated 2024).
Not every detail of the peptide structures is certain; ends, links or a residue may be inferred. Peptide text beside a SMILES is read from it. * marks the point of attachment. X1 = CCCCCCCCCCCCCCCC(=O)OCC(C*)OC(=O)CCCCCCCCCCCCCCC

Tests used:
[1] = test system: C57BL/6 mice exposed to 9.2 Gy gamma radiation (total body irradiation); assay: Survival and clinical score after lethal total body irradiation, TLR ligands given IP; assay type: in vivo
Experimental: To examine the role of TLR ligands as radio-mitigators, FSL-1 (TLR2/6 ligand) was first compared with other TLR ligands (FIGS. 1A and 1B). In this experiment, C57BL/6 mice were exposed to 9.2 Gy gamma radiation (total body irradiation, or TBI) using 137-Cesium irradiator and then the mice were treated with TLR ligands via intraperitoneal (IP) injections one day after radiation. The impact of CpG-ODN2395 (CpG, TLR9 agonist), Flagellin FliC (Fla, TLR5 agonist), MPLA (TLR4 agonist) or FSL-1 (Pam2[…], TLR2/6 agonist) in comparison to mice treated with physiological water (no treatment, NT) was examined. Survival was monitored over 30 days and clinical scores were recorded. […] Eight independent experiments have been completed, each showing the survival rate of FSL-1-treated mice ranged from 50% to 100% with the mean rate of 80%. The lowest one is presented herein.
The Clinical Score is based on changes to body condition that included body weight, body temperature, physical appearance, grooming, posture, activity/behavior, appetite and hydration. Supplementation with wet feed, subcutaneous fluids, long sipper tubes, were provided as needed.

[2] = test system: irradiated male C57BL/6 mice; assay: Radiomitigation activity of TLR2 ligands after TBI; assay type: in vivo; conditions: IP injection 24 hr post TBI
Experimental: The radiomitigation activity of TLR2 ligands was delineated (FIGS. 1C and 1D), including FSL-1, by irradiating male C57BL/6 mice and treating (IP injections) with either FSL-1, Pam2CSK4 (Pam2Cys-SKKKK, TLR2/6 ligand), or Pam3CSK4 (Pam3Cys-SKKKK, TLR1/2 ligand) at 24 hours (hr) post TBI.

spleen = assay: Extramedullary hematopoiesis in the spleen after radiation; assay type: in vivo, mice
[3] = test system: mice treated with FSL-1 post TBI; assay: Late effects of radiation: long-term survivors, MRI of tissues; assay type: in vivo; conditions: FSL-1 post lethal TBI
From the text: MRI was used to detect multiple tissues in these survivors, such as brain, gut, kidney or spleen. […] FSL-1 is found to accelerate hematopoietic cell recovery in bone marrow, spleen and periphery, and augments systemic levels of hematopoiesis stimulating factors (G-CSF).

[4] = test system: mice post radiation (8.2Gy); assay: Survival after 8.2Gy radiation, FSL-1 given subcutaneously; assay type: in vivo; conditions: SC (shoulder scruff or abdominal flank) 24 hr post radiation
[5] = test system: Balb/c mice post radiation (7.5Gy TBI); assay: Survival and weight after 7.5Gy TBI in Balb/c mice, FSL-1 given subcutaneously; assay type: in vivo; conditions: single SC dose 24 hr post 7.5Gy TBI
colon = assay: Radiation-induced GI syndrome: colon H&E, caspases 3 and 7, multiplex protein assay, Ki67 staining; assay type: in vivo; conditions: versus control group
B16 melanoma tumor cells = assay: B16 melanoma tumor model with cisplatin chemotherapy
Experimental: The impact of combining FSL-1 treatment with chemotherapy as a therapeutic against cancer was also tested. In this study, B16 melanoma tumor cells (50,000) in matrigel matrix were implanted into the flank (SC) of wild type animals and were allowed to grow 10 days to palpation (˜3-5 mm in diameter). Mice were then treated with chemotherapy agent cisplatin (intravenous IV, 100 μg/mouse) with and without FSL-1 (SC, 40 μg/mouse). Changes in tumor volume (ellipsoidal volume calculation of ½ width*width*length, mm^3) were monitored along with changes in body weight and condition.

CCCCCCCCCCCCCCCC(=O)OCC(CSC[C@H](N)C(=O)NCC(=O)N[C@@H](CC(=O)O)C(=O)N1CCC[C@H]1C(=O)N[C@@H](CCCCN)C(=O)N[C@@H](Cc1c[nH]cn1)C(=O)N1CCC[C@H]1C(=O)N[C@@H](CCCCN)C(=O)N[C@@H](CO)C(=O)N[C@@H](Cc1ccccc1)C(=O)O)OC(=O)CCCCCCCCCCCCCCC (stereo partly drawn) [FSL-1] (H-C(X1)GDPKHPKSF-OH)
mice protected from radiation-induced death ([1]; 9.2 Gy TBI, IP injection one day after radiation, survival over 30 days, lowest of eight experiments): 50%
clinical score ([1]; compared to other ligands): lower clinical score
survival rate, mean over eight independent experiments ([1]; eight independent experiments): 80%
survival [2]: promoted survival
spleen organ weight (spleen): increased organ weight by day 17
splenic cellularity (H&E, blinded pathologist) (spleen): increased cellularity in spleen from days 9 to 31
survival time of surviving mice [3]: more than 600 days
animals surviving for 30 days [4]: more than 50%
survival [5]: survived
radiation-induced GI syndrome, colon analyses (data not shown) (colon): no difference
animals reaching humane endpoint of 2 cm diameter tumor size (B16 melanoma tumor cells; by day 20): 1
tumor size / growth (B16 melanoma tumor cells; cisplatin IV 100 μg/mouse, FSL-1 SC 40 μg/mouse, treatment 10 days after implantation): restricted in growth
